No constants are given. Whether binding was seen depends on the method and setting. For some assays here: A result given as binding can be weak or reduced; the word gives no strength.
Legend:
Experiment in all cases: two-hybrid; BACTH screen among a subset of 20 Inc proteins in E. coli DHT1: a pST25-inc bait with a pool of the pUT18C-inc plasmids, blue colonies sequenced; and pairwise co-transformations with β-galactosidase of eight colonies; interaction = activity at least 5 times the negative control
[1] = biological target: T1, IncE (Ct116) (Chlamydia trachomatis (serovar D/UW-3/CX or L2)) (UniProt P0DJI4)
T1 sequence: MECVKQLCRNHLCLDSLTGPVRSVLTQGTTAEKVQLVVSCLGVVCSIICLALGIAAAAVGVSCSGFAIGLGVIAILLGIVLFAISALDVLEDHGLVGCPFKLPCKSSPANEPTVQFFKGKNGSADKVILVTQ

[2] = biological target: Ct222 (Chlamydia trachomatis (serovar D/UW-3/CX or L2)) (UniProt O84225)
[3] = biological target: T2, IncF (Ct117) (Chlamydia trachomatis (serovar D/UW-3/CX or L2)) (UniProt P0DJI5)
T2 sequence: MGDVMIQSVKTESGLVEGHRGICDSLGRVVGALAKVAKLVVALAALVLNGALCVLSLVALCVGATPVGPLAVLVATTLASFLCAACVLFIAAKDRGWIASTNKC

[4] = biological target: T3, Ct005 (Chlamydia trachomatis (serovar D/UW-3/CX or L2)) (UniProt O84008)
T3 sequence: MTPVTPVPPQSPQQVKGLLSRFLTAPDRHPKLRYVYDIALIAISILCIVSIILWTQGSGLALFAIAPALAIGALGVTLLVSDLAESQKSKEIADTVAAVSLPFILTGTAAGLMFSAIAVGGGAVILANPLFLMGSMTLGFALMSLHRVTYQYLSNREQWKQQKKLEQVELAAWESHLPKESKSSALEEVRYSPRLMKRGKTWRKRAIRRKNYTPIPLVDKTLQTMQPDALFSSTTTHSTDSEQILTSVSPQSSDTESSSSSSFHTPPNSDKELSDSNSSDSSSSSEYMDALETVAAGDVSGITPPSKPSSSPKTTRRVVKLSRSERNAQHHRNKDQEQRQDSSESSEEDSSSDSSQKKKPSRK

[5] = biological target: Ct229 (Chlamydia trachomatis (serovar D/UW-3/CX or L2)) (UniProt O84232)
[6] = biological target: T4, IncD (Ct115) (Chlamydia trachomatis (serovar D/UW-3/CX or L2)) (UniProt P0DJI3)
T4 sequence: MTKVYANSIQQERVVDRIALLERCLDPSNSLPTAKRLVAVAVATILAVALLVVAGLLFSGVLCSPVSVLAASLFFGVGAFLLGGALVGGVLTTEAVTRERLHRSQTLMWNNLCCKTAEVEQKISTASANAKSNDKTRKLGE

[7] = biological target: Ct850 (Chlamydia trachomatis (serovar D/UW-3/CX or L2)) (UniProt O84858)
[8] = biological target: Ct227 (Chlamydia trachomatis (serovar D/UW-3/CX or L2))
[9] = biological target: Ct135 (Chlamydia trachomatis (serovar D/UW-3/CX or L2))
[10] = biological target: IncB (Ct232) (Chlamydia trachomatis (serovar D/UW-3/CX or L2))
[11] = biological target: Ct134 (Chlamydia trachomatis (serovar D/UW-3/CX or L2))
[12] = biological target: Ct058 (Chlamydia trachomatis (serovar D/UW-3/CX or L2))
[13] = biological target: Ct101 (Chlamydia trachomatis (serovar D/UW-3/CX or L2))
[14] = biological target: IncA (Ct119) (Chlamydia trachomatis serovar L2)
[15] = biological target: Ct249 (Chlamydia trachomatis (serovar D/UW-3/CX or L2)) (UniProt O84251)

Molecule: Ct101
- binding [1]: no binding

Molecule: Ct224 (from UniProt O84227)
- binding [2]: binds

Molecule: Ct134
- binding [1]: no binding

Molecule: IncA (Ct119) (from UniProt A0A0H3MD02)
- binding [1]: no binding
- binding [3]: binds
- binding [4]: binds

Molecule: Ct813 (from UniProt O84819)
- binding [1]: no binding

Molecule: Ct850 (from UniProt O84858)
- binding [2]: binds
- binding [1]: no binding
- binding [3]: binds

Molecule: Ct223 (from UniProt O84226)
- binding [2]: binds
- binding [1]: no binding
- binding [5]: binds

Molecule: Ct249 (from UniProt O84251)
- binding [1]: no binding
- binding [3]: binds

Molecule: Ct229 (from UniProt O84232)
- binding [1]: no binding

Molecule: Ct225 (from UniProt O84228)
- binding [1]: no binding

Molecule: IncC (Ct233)
- binding [1]: no binding
- binding [3]: binds

Molecule: Ct222 (from UniProt O84225)
- binding [1]: no binding
- binding [6]: binds
- binding [5]: binds
- binding [7]: binds

Molecule: Ct227
- binding [1]: no binding

Molecule: Ct135
- binding [1]: no binding

Molecule: Ct058
- binding [1]: no binding
- binding [6]: binds
- binding [3]: binds

Molecule: IncB (Ct232)
- binding [1]: no binding

B1: IncD (Ct115) (protein, UniProt P0DJI3 1-141)
chain: MTKVYANSIQQERVVDRIALLERCLDPSNSLPTAKRLVAVAVATILAVALLVVAGLLFSGVLCSPVSVLAASLFFGVGAFLLGGALVGGVLTTEAVTRERLHRSQTLMWNNLCCKTAEVEQKISTASANAKSNDKTRKLGE
- binding [8]: no binding
- binding [2]: binds
- binding [9]: no binding
- binding [10]: no binding
- binding [5]: binds
- binding [11]: no binding
- binding [12]: binds
- binding [13]: no binding
- binding [14]: binds

B2: IncF (Ct117) (protein, UniProt P0DJI5 1-104)
chain: MGDVMIQSVKTESGLVEGHRGICDSLGRVVGALAKVAKLVVALAALVLNGALCVLSLVALCVGATPVGPLAVLVATTLASFLCAACVLFIAAKDRGWIASTNKC
- binding [8]: no binding
- binding [9]: no binding
- binding [10]: no binding
- binding [11]: no binding
- binding [15]: binds
- binding [7]: binds
- binding [13]: no binding
- binding [14]: binds

B3: Ct005 (protein, UniProt O84008 1-363)
chain: MTPVTPVPPQSPQQVKGLLSRFLTAPDRHPKLRYVYDIALIAISILCIVSIILWTQGSGLALFAIAPALAIGALGVTLLVSDLAESQKSKEIADTVAAVSLPFILTGTAAGLMFSAIAVGGGAVILANPLFLMGSMTLGFALMSLHRVTYQYLSNREQWKQQKKLEQVELAAWESHLPKESKSSALEEVRYSPRLMKRGKTWRKRAIRRKNYTPIPLVDKTLQTMQPDALFSSTTTHSTDSEQILTSVSPQSSDTESSSSSSFHTPPNSDKELSDSNSSDSSSSSEYMDALETVAAGDVSGITPPSKPSSSPKTTRRVVKLSRSERNAQHHRNKDQEQRQDSSESSEEDSSSDSSQKKKPSRK
- binding [8]: no binding
- binding [9]: no binding
- binding [10]: no binding
- binding [11]: no binding
- binding [13]: no binding
- binding [14]: binds

B4: IncE (Ct116) (protein, UniProt P0DJI4 1-132)
chain: MECVKQLCRNHLCLDSLTGPVRSVLTQGTTAEKVQLVVSCLGVVCSIICLALGIAAAAVGVSCSGFAIGLGVIAILLGIVLFAISALDVLEDHGLVGCPFKLPCKSSPANEPTVQFFKGKNGSADKVILVTQ
- binding [8]: no binding
- binding [9]: no binding
- binding [10]: no binding
- binding [11]: no binding
- binding [13]: no binding

B5: IncG (Ct118) (protein, UniProt P0DPS6 1-167)
chain: MICCDKVLSSVQSMPVIDKCSVTKCLQTAKQAAVLALSLFAVFASGSLSILSAAVLFSGTAAVLPYLLILTTALLGFVCAVIVLLRNLSAVVQSCKKRSPEEIEGAARPSDQQESGGRLSEESASPQASPTSSTFGLESALRSIGDSVSGAFDDINKDNSRSRSHSF
- binding [8]: no binding
- binding [9]: no binding
- binding [10]: no binding
- binding [11]: no binding
- binding [13]: no binding
